Reference: the supplement of paper PMC4749390
Where a name gives a salt, the structure may show the parent alone. The list shows a part of the results. This data set is noisy: repeats of one test often differ as much as different tests do.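 JEG3 cells stably express tetracycline-inducible wild-type human LRH-1, a highly sumoylated nuclear receptor. SUMO-sensitive transcripts APOC3 and MUC1, increased by SUMO-deficient LRH-1 or UBC9 knockdown, were quantified by RT-qPCR relative to TBP and DMSO controls. Primary hits had robust Z-scores above +2 or below -2, before toxicity and TBP filtering.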

System: JEG3 expressing hLRH-1
Test: APOC3 transcript change (ddCt vs TBP and DMSO), Z-score over library; higher = higher APOC3 expression
Settings: 10 µM; time (hr): 24

| Structure (SMILES) | APOC3 transcript change (Z-score) |
| --- | --- |
| CN(C)C(=S)SSC(=S)N(C)C [thiram] | -2.13 |
| CC(C)C[C@H](CN)CC(=O)O [pregabalin] | -0.138 |
| CCC(C)(C)O [amylene hydrate] | -0.71 |
| CC(C)(C)NCC(O)c1ccccc1Cl (stereo not drawn) [tulobuterol] | -0.491 |
| COc1ccc(C(=O)N2CCCC2=O)cc1 [Aniracetam] | -1.06 |
| CC(C)N(CCC(C(N)=O)(c1ccccc1)c1ccccn1)C(C)C (stereo not drawn) [Disopyramide phosphate] | -1.06 |
| OC[C@@H](O)[C@H]1O[C@@H]2O[C@H](C(Cl)(Cl)Cl)O[C@@H]2[C@H]1O [chloralose] | -0.675 |
| COc1ccc(O)c(C(C)(C)C)c1 [butylated hydroxyanisole] | -0.184 |
| CC(Cc1ccc(O)cc1)NCC(O)c1cc(O)cc(O)c1 (stereo not drawn) [fenoterol hydrobromide] | 0.155 |
| CC[C@H]1C2CC3[C@@H]4N(C)c5ccccc5[C@]45C[C@@H](C2C5O)N3[C@@H]1O (stereo partly drawn) [ajmaline] | 0.632 |
| CNC(C)[C@H](O)c1ccccc1 (stereo partly drawn) [ephedrine (1r,2s) hydrochloride] | 0.179 |
| Nc1ccc([As](=O)(O)O)cc1 [arsanilic acid] | -0.077 |
| CCn1cc(C(=O)O)c(=O)c2cc3c(cc21)OCO3 [oxolinic acid] | 0.49 |
| CN1C[C@H](C(=O)N[C@]2(C)O[C@@]3(O)C4CCCN4C(=O)[C@H](Cc4ccccc4)N3C2=O)C=C2c3cccc4[nH]cc(c34)C[C@H]21 (stereo partly drawn) [ergotamine tartrate] | 0.523 |
| [N-]=[N+]=CC(=O)OCC(N)C(=O)O (stereo not drawn) [azaserine] | 1.05 |
| COc1cccc([C@]2(O)CCCC[C@H]2CN(C)C)c1 [tramadol hydrochloride] | -0.387 |
| CNC(C)C(O)c1ccccc1 (stereo not drawn) [racephedrine hydrochloride] | 0.191 |
| C=CCC1(C(C)CCC)C(=O)N=C(S)NC1=O (stereo not drawn) [thiamylal sodium] | 0.0976 |
| CCC(=O)O[C@H]1CCC2C3CCC4=CC(=O)CC[C@]4(C)C3CC[C@@]21C (stereo partly drawn) [testosterone propionate] | 0.88 |
| C[N+]1([O-])C2CCC1CC(OC(=O)C(CO)c1ccccc1)C2 (stereo not drawn) [atropine oxide] | -0.547 |
| O=C(OC1CC2CCC(C1)[N+]21CCCC1)C(O)(c1ccccc1)c1ccccc1 (stereo not drawn) [trospium chloride] | 0.34 |
| O=[N+]([O-])C(Br)(CO)CO [bronopol] | -1.2 |
| C[C@@H](CO)NC(=O)[C@@H]1C=C2c3cccc4[nH]cc(c34)C[C@H]2N(C)C1 [ergonovine maleate] | -0.074 |
| Clc1ccc(C(OCCN2CCCCC2)c2ccccc2)cc1 (stereo not drawn) [cloperastine hydrochloride] | 0.44 |
| CCOP(=S)(OCC)Oc1cc(C)nc(C(C)C)n1 [diazinon] | 0.353 |
| CC[C@@H](C(=O)[C@@H](C)[C@@H](O)[C@H](C)[C@@H]1O[C@@H]([C@@H](CC)C(=O)O)CC[C@@H]1C)[C@H]1OC2(C=C[C@@H](O)[C@]3(CC[C@@](C)([C@H]4CC[C@](O)(CC)[C@H](C)O4)O3)O2)[C@H](C)C[C@@H]1C (stereo partly drawn) [salinomycin, sodium] | -5.8 |

| Structure (SMILES) | APOC3 transcript change (Z-score) |
| --- | --- |
| CC(CC(C(N)=O)(c1ccccc1)c1ccccc1)N(C)C (stereo not drawn) [aminopentamide sulfate] | 0.411 |
| Oc1ccc(Cl)cc1Cc1cc(Cl)ccc1O [dichlorophene] | -1 |
| NC(=O)CN1CCCC1=O [piracetam] | -0.0264 |
| NP(N)(=O)NC(=O)c1ccc(F)cc1 [flurofamide] | 0.0249 |
| Oc1ccc(Cl)cc1 [parachlorophenol] | 0.901 |
| NC(=O)CS(=O)C(c1ccccc1)c1ccccc1 (stereo not drawn) [modafinil] | -0.447 |
| CC1(C)C(C=C(Cl)Cl)C1C(=O)OCc1cccc(Oc2ccccc2)c1 (stereo not drawn) [permethrin] | 0.446 |
| CCN1C[C@]2(COC)[C@H](O)C[C@H](OC)[C@@]34[C@@H]5C[C@@]6(O)[C@H](OC(=O)c7ccccc7)[C@@H]5[C@@](OC(C)=O)([C@@H]([C@H](OC)[C@H]23)[C@@H]14)[C@@H](O)[C@@H]6OC [aconitine] | 0.139 |
| COc1cc2c(c(OC)c1OC)-c1ccc(OC)c(=O)cc1[C@@H](NC(C)=O)CC2 [colchicine] | -4.44 |
| C[C@]12CC[C@@H]3c4ccc(OC(=O)N(CCCl)CCCl)cc4CC[C@H]3[C@@H]1CC[C@@H]2O [estramustine] | 0.861 |
| CCC(COC(=O)c1cc(OC)c(OC)c(OC)c1)(c1ccccc1)N(C)C (stereo not drawn) [trimebutine maleate] | 0.428 |
| C[C@@H]1O[C@@H](O[C@H]2C[C@@H](O)[C@]3(CO)[C@H]4[C@H](O)C[C@]5(C)[C@@H](C6=CC(=O)OC6)CC[C@]5(O)[C@@H]4CC[C@]3(O)C2)[C@H](O)[C@H](O)[C@H]1O [ouabain] | -5.14 |
| C#C[C@@H]1CC2C3CCC4=C[C@@H](OC(C)=O)CCC4C3CC[C@]2(C)[C@H]1OC(C)=O (stereo partly drawn) [ethynodiol diacetate] | -0.163 |
| C=C[C@H]1CN2CC[C@H]1C[C@@H]2[C@H](O)c1ccnc2ccccc12 [cinchonine] | -0.185 |
| O=c1c2ccccc2[se]n1-c1ccccc1 [ebselen] | 1.16 |
| Cc1cccc(C)c1NC1=NCCCS1 [Xylazine hydrochloride] | 1.2 |
| NCC(O)c1ccc(O)cc1 (racemic) [(±)-Octopamine hydrochloride] | 0.866 |
| N=C1NC(=O)N2CC12 (stereo not drawn) [imexon] | -1.18 |
| CC[C@@H](c1cccc(O)c1)[C@@H](C)CN(C)C [tapentadol hydrochloride] | -0.00785 |
| C=C(C)C1CNC(C(=O)O)C1CC(=O)O (stereo not drawn) [kainic acid] | -0.113 |
| CNC(=O)Oc1ccc2c(c1)[C@]1(C)CCN(C)[C@@H]1N2C [(-)-Physostigmine] | -0.0668 |
| COC(=O)C1=CCCN(C)C1 [Arecoline hydrobromide] | 0.0643 |
| CCN(C(C)=O)c1cccc(-c2ccnc3c(C#N)cnn23)c1 [zaleplon] | -0.307 |
| C[N+]1(C)C2CC(OC(=O)[C@@H](CO)c3ccccc3)CC1C1OC12 (stereo in doubt) [methscopolamine bromide] | -0.493 |
| CC(C)(C)NCC(O)c1cc(Cl)c(N)c(Cl)c1 (stereo not drawn) [clenbuterol hydrochloride] | 0.239 |
| COc1cc2c(cc1OC)[C@@]13CCN4CC5=CCO[C@H]6CC(=O)N2[C@H]1[C@H]6[C@H]5C[C@H]43 [brucine] | -0.928 |

Retrieved one by one from above:

| Structure (SMILES) | APOC3 transcript change (Z-score) |
| --- | --- |
| CC[C@@H](c1cccc(O)c1)[C@@H](C)CN(C)C [tapentadol hydrochloride] | -0.00785 |
| C=C[C@H]1CN2CC[C@H]1C[C@@H]2[C@H](O)c1ccnc2ccccc12 [cinchonine] | -0.185 |
| Oc1ccc(Cl)cc1Cc1cc(Cl)ccc1O [dichlorophene] | -1 |
| Oc1ccc(Cl)cc1 [parachlorophenol] | 0.901 |

Compounds shown so far that have an NH in an aromatic ring:

| Structure (SMILES) | APOC3 transcript change (Z-score) |
| --- | --- |
| CN1C[C@H](C(=O)N[C@]2(C)O[C@@]3(O)C4CCCN4C(=O)[C@H](Cc4ccccc4)N3C2=O)C=C2c3cccc4[nH]cc(c34)C[C@H]21 (stereo partly drawn) [ergotamine tartrate] | 0.523 |
| C[C@@H](CO)NC(=O)[C@@H]1C=C2c3cccc4[nH]cc(c34)C[C@H]2N(C)C1 [ergonovine maleate] | -0.074 |

The listing continues.

| Structure (SMILES) | APOC3 transcript change (Z-score) |
| --- | --- |
| Oc1noc2c1CCNC2 [THIP hydrochloride] | 0.557 |
| CNCC(=O)c1ccc(O)c(O)c1 [adrenolone hydrochloride] | 0.623 |
| C[N+]1(C)C2CCC1CC(OC(=O)C(CO)c1ccccc1)C2 (stereo not drawn) [methylatropine nitrate] | -0.0292 |
| COc1ccc(Cc2nccc3cc(OC)c(OC)cc23)cc1OC [Papaverine hydrochloride] | -1.94 |
| C[C@]12CC[C@H]3[C@@H](CC[C@@]45O[C@@H]4C(O)=C(C#N)C[C@]35C)[C@@H]1CC[C@@H]2O [trilostane] | -0.16 |
| O=[N+]([O-])O[C@@H]1CO[C@H]2[C@@H]1OC[C@@H]2O [isosorbide mononitrate] | -0.743 |
| COc1ccc(CCN2CCC(Nc3nc4ccccc4n3Cc3ccc(F)cc3)CC2)cc1 [astemizole] | -0.541 |
| CCN(C)C(=O)Oc1cccc([C@H](C)N(C)C)c1 [rivastigmine tartrate] | -0.092 |
| COc1ccc2c(c1OC)C(=O)O[C@@H]2[C@H]1c2cc3c(cc2CCN1C)OCO3 [hydrastine (1r, 9s)] | -0.216 |
| CC[C@@H](CO)NC(=O)[C@@H]1C=C2c3cccc4c3c(cn4C)C[C@H]2N(C)C1 [methysergide maleate] | 1.07 |
| C=C[C@H]1CN2CC[C@H]1C[C@@H]2[C@@H](OC(=O)OCC)c1ccnc2ccc(OC)cc12 [quinine ethyl carbonate] | -0.0447 |
| C[C@]12CC[C@H](O)CC1=CCC1C2CC[C@]2(C)C(=O)CC[C@@H]12 (stereo partly drawn) [prasterone] | -0.558 |
| CC[C@H]1CN2CCC1C[C@@H]2[C@@H](O)c1ccnc2ccc(OC)cc12 (stereo partly drawn) [hydroquinidine] | 0.483 |
| COc1cc([C@@H]2c3cc4c(cc3[C@H](O)[C@H]3COC(=O)[C@H]23)OCO4)cc(OC)c1OC [podofilox] | -2.32 |
| CCC1(C2=NCCN2)Cc2ccccc2O1 (stereo not drawn) [efaroxan] | 0.331 |
| CC(=O)O[C@H]1C[C@H](O[C@H]2[C@@H](O)C[C@H](O[C@H]3[C@@H](O)C[C@H](O[C@H]4CC[C@@]5(C)[C@H](CC[C@@H]6[C@@H]5C[C@@H](O)[C@]5(C)[C@@H](C7=CC(=O)OC7)CC[C@]65O)C4)O[C@@H]3C)O[C@@H]2C)O[C@H](C)[C@H]1O[C@@H]1O[C@H](CO)[C@@H](O)[C@H](O)[C@H]1O [lanatoside c] | -6.43 |
| O=[N+]([O-])OCC(CO[N+](=O)[O-])O[N+](=O)[O-] [nitroglycerin] | -0.316 |
| O=C(O)c1nn(Cc2ccc(Cl)cc2Cl)c2ccccc12 [lonidamine] | 0.493 |
| Cc1ncc(CNC(=O)N(CCCl)N=O)c(N)n1 [nimustine] | 0.22 |
| COc1ccc(C(CN(C)C)C2(O)CCCCC2)cc1 (stereo not drawn) [venlafaxine hydrochloride] | 0.795 |
| O=P1(NCCCl)OCCCN1CCCl (stereo not drawn) [ifosfamide] | -0.512 |
| O=C(O)Cc1ccccc1 [sodium phenylacetate] | 0.0778 |
| CC(C)(O)C(Cl)(Cl)Cl [chlorobutanol] | 2.38 |
| Oc1cccc2cccnc12 [oxyquinoline] | -0.98 |
| O=c1n(Cl)c(=O)n(Cl)c(=O)n1Cl [symclosene] | -0.173 |
| C[C@@H]([C@H](O)c1ccccc1)N(C)C [(-)-Ephedrine, N-Methyl] | -0.868 |
